No constants are given. Whether binding was seen depends on the method and setting. In cells and extracts the contact can be indirect. Some entries that bind do so weakly or less than the wild type. Tags and fused reporters may be left off the sequences shown.
Legend:
[1] = biological target: recombining binding protein suppressor of hairless (RBP-J) (human) (UniProt Q06330); experiment: co-immunoprecipitation in HEK293 cells (FIGS. 8F-8G)
[2] = biological target: recombining binding protein suppressor of hairless (RBP-J) (human) (UniProt Q06330); experiment: co-immunoprecipitation in HEK293 cells, as summed up in the example's discussion
[3] = biological target: recombining binding protein suppressor of hairless (RBP-J) (human) (UniProt Q06330); experiment: co-immunoprecipitation in HEK293 cells (IP with GFP antibody, blot for RBP-J; FIG. 8F)

Amino acid sequences for entries named in this document (tags omitted).
UniProt Q06330: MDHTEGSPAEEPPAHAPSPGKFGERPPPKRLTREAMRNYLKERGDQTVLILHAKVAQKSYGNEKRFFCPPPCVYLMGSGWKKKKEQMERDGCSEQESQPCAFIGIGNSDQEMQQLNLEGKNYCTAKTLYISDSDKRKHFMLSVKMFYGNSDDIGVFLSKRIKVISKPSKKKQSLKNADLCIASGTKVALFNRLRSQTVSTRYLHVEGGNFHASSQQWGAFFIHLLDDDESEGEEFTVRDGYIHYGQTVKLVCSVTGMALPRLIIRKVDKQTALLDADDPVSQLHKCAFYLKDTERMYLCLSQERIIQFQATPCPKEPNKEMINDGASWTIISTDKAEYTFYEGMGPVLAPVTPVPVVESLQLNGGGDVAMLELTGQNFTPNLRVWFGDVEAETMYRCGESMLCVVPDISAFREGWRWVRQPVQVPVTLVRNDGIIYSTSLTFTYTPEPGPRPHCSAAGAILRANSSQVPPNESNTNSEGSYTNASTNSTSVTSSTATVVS

Measured: binding

B1: GFP-GIT1(ANK) (protein, not shown: large carriers)
chain: DLSKQLHSSVRTGNLETCLRLLSLGAQANFFHPEKGTTPLHVAAKAGQTLQAELLVVYGADPGSPDVNGRTPIDYARQAGHHELAERLVECQYELTD
binds: [1] | [2] | [3]
